Source: patent US20150098961A1
These are yes or no findings as the source states them, for the method shown. Some binding calls cover weakened binding; strength is not graded here.

By UniProt entry, the sequences of proteins in these tests, tags left out. Where a name states a change or a piece, a line headed by the entry shows the natural chain unless it says otherwise.
UniProt P15488: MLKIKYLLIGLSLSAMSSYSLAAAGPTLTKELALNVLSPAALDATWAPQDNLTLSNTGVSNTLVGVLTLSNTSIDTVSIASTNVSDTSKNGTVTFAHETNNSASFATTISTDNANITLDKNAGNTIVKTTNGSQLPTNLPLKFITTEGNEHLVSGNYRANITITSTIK
UniProt P53508: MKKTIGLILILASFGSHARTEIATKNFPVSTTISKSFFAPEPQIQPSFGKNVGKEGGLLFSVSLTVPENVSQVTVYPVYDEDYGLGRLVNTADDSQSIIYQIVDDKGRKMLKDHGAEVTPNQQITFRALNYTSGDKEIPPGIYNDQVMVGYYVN
UniProt P53510: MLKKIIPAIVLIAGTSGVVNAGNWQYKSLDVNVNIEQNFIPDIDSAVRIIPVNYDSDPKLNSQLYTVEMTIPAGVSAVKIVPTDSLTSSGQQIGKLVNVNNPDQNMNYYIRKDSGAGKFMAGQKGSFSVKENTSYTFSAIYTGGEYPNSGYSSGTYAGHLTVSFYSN

What was measured:
[1] = target: CstH (ETEC CS3 major fimbrial subunit) (enterotoxigenic Escherichia coli) (UniProt P15488); experiment: isolated non-covalent oligomer (3-14 subunits) used as immunogen
[2] = target: CstH (ETEC CS3 major fimbrial subunit) (enterotoxigenic Escherichia coli) (UniProt P15488); experiment: PAGE, denaturing against non-denaturing; self-association
[3] = target: CssA (ETEC CS6 major fimbrial subunit) (enterotoxigenic Escherichia coli) (UniProt P53508); experiment: as above
[4] = target: CssB (ETEC CS6 major fimbrial subunit) (enterotoxigenic Escherichia coli) (UniProt P53510); experiment: as above

CstH (ETEC CS3 major fimbrial subunit) (from UniProt P15488 23-168)
binding [1]: binds
binding [2]: binds

CssA (ETEC CS6 major fimbrial subunit) (from UniProt P53508 19-154)
binding [3]: binds

CssB (ETEC CS6 major fimbrial subunit) (from UniProt P53510 22-167)
binding [4]: binds
